# Source: the supplement of paper PMC12542422
# Structures can show the parent of a compound that is named as a salt. ± gives the standard deviation of the averaged measurements. Some of the results follow. Values are raw readings; no control value is given beside them.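 HeLa cells imaged for ribosome-assembly readouts (ENP1 staining with or without export block, or inducible tagged ribosomal protein reporters); machine learning classified each cell's signal location against solvent (DMSO) controls. Hits exceeded the DMSO false-positive mean by five standard deviations, then were visually confirmed; three biological replicates.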
# Legend:
# [1] = system: HeLa K (ENP1 immunofluorescence, +LMB); experiment: fraction of cells with nucleolar or nucleolar/nucleoplasmic ENP1 signal (MainHitrate); higher = more cells with nucleolar/nuclear readout signal (for ENP1 -LMB: less RNAPI inhibition; for +LMB ENP1 and RP reporters: stronger nuclear/nucleolar retention, i.e. ribosome biogenesis defect); conditions: concentration: 1 µM; treatment time: 6 h; ENP1 +LMB; leptomycin B: 20 nM, last 1.5 h
# [2] = system: HeLa K (ENP1 immunofluorescence, no LMB); experiment: as above; conditions: concentration: 1 µM; treatment time: 6 h; ENP1 -LMB; leptomycin B: none
# HeLa RPS2-YFP reporter = experiment: fraction of reporter-positive cells with nuclear (nucleolar or nucleolar/nucleoplasmic) RPS2-YFP (MainHitrate); higher = more cells with nucleolar/nuclear readout signal (for ENP1 -LMB: less RNAPI inhibition; for +LMB ENP1 and RP reporters: stronger nuclear/nucleolar retention, i.e. ribosome biogenesis defect); conditions: concentration: 1 µM; treatment time: 6 h
# HeLa RPL29-GFP reporter = experiment: fraction of reporter-positive cells with nuclear (nucleolar or nucleolar/nucleoplasmic) RPL29-GFP (MainHitrate); higher = more cells with nucleolar/nuclear readout signal (for ENP1 -LMB: less RNAPI inhibition; for +LMB ENP1 and RP reporters: stronger nuclear/nucleolar retention, i.e. ribosome biogenesis defect); conditions: concentration: 1 µM; treatment time: 6 h
Compound,fraction [1],fraction [2],fraction of reporter-positive cells with nuclear (HeLa RPS2-YFP reporter),fraction of reporter-positive cells with nuclear (HeLa RPL29-GFP reporter)
CC(C)c1c(CN(C)C(C)Cc2ccccc2)n(C)n(-c2ccccc2)c1=O (configuration not stated) [Famprofazone],0.112 ± 0.14,0.9979 ± 0.0037,0.175 ± 0.14,0.323 ± 0.28
CN1[C@@H]2CC[C@H]1C[C@@H](OC(=O)C(CO)c1ccccc1)C2 (some centres not stated) [Atropine],0.112 ± 0.15,0.989 ± 0.02,0.108 ± 0.084,0.237 ± 0.088
O=C(O[C@H]1C[C@H]2CC[C@@H](C1)[N+]21CCCC1)C(O)(c1ccccc1)c1ccccc1 [Trospium chloride (Sanctura)],0.128 ± 0.19,0.993 ± 0.012,0.116 ± 0.08,0.279 ± 0.081
CC[C@@]1(O)C(=O)OCc2c1cc1n(c2=O)Cc2cc3ccccc3nc2-1 [Camptothecin],0.0648 ± 0.07,0.946 ± 0.093,0.0611 ± 0.024,0.207 ± 0.032
Cc1cccc([C@H](C)c2c[nH]cn2)c1C [Dexmedetomidine HCl (Precedex)],0.0684 ± 0.083,0.997 ± 0.0051,0.155 ± 0.098,0.247 ± 0.04
C[C@@H]1O[C@@H](O[C@H]2C[C@@H](O)[C@]3(CO)[C@H]4[C@H](O)C[C@]5(C)[C@@H](C6=CC(=O)OC6)CC[C@]5(O)[C@@H]4CC[C@]3(O)C2)[C@H](O)[C@H](O)[C@H]1O [Ouabain],0.241 ± 0.33,0.962 ± 0.065,0.102 ± 0.061,0.235 ± 0.1
O=P1(NCCCl)OCCCN1CCCl (configuration not stated) [Ifosfamide],0.0802 ± 0.055,0.9974 ± 0.0045,0.0661 ± 0.024,0.225 ± 0.059
Cn1c(CCCC(=O)O)nc2cc(N(CCCl)CCCl)ccc21 [Bendamustine HCL],0.0781 ± 0.083,0.9977 ± 0.004,0.114 ± 0.07,0.204 ± 0.056
Cc1cc(C(C#N)c2ccc(Cl)cc2)c(Cl)cc1NC(=O)c1cc(I)cc(I)c1O (configuration not stated) [Closantel Sodium],0.0786 ± 0.097,0.992 ± 0.013,0.114 ± 0.1,0.213 ± 0.071
CN1[C@@H]2CC(O)C[C@H]1[C@@H]1O[C@@H]12 (some centres not stated) [Scopine],0.128 ± 0.19,0.9962 ± 0.0066,0.107 ± 0.055,0.229 ± 0.068
O=S(=O)(F)Cc1ccccc1 [PMSF (Phenylmethylsulfonyl Fluoride)],0.0965 ± 0.13,0.974 ± 0.044,0.119 ± 0.1,0.21 ± 0.057
CCC(COC(=O)c1cc(OC)c(OC)c(OC)c1)(c1ccccc1)N(C)C (configuration not stated) [Trimebutine],0.0498 ± 0.061,0.993 ± 0.012,0.0875 ± 0.059,0.22 ± 0.054
NCC1(CC(=O)O)CCCCC1 [Gabapentin (Neurontin)],0.107 ± 0.14,0.993 ± 0.013,0.125 ± 0.074,0.229 ± 0.059
CNCC(=O)c1ccc(O)c(O)c1 [Adrenalone HCl],0.0818 ± 0.11,0.989 ± 0.019,0.124 ± 0.098,0.202 ± 0.054
O=C1CC[C@@]2(O)[C@H]3Cc4ccc(O)c5c4[C@@]2(CCN3CC2CC2)[C@H]1O5 [Naltrexone HCl],0.124 ± 0.18,0.991 ± 0.015,0.108 ± 0.099,0.229 ± 0.073
CC(C)NCC(O)c1ccccc1Cl (configuration not stated) [Clorprenaline HCL],0.0907 ± 0.13,0.991 ± 0.015,0.131 ± 0.096,0.219 ± 0.055
CC(=O)Nc1cc([As](=O)(O)O)ccc1O [Acetarsone],0.105 ± 0.11,0.9964 ± 0.0062,0.181 ± 0.16,0.294 ± 0.26
CN1C(=O)COc2c(C(=O)NC3CN4CCC3CC4)cc(Cl)cc21 (configuration not stated),0.0891 ± 0.11,0.992 ± 0.014,0.11 ± 0.068,0.211 ± 0.08
"NCC(O)c1ccc(O)cc1 (racemic) [(+,-)-Octopamine HCl]",0.0927 ± 0.11,0.986 ± 0.025,0.136 ± 0.076,0.213 ± 0.075
O=C(O)c1nn(Cc2ccc(Cl)cc2Cl)c2ccccc12 [Lonidamine],0.133 ± 0.18,0.9963 ± 0.0064,0.127 ± 0.11,0.212 ± 0.081
C[N+]1(C)[C@@H]2C[C@@H](OC(=O)[C@H](CO)c3ccccc3)C[C@H]1[C@@H]1O[C@@H]12 [Methscopolamine (Pamine)],0.119 ± 0.17,0.9947 ± 0.0092,0.0828 ± 0.062,0.22 ± 0.081
CC(=O)O[C@H]1C[C@@H]2CC[C@@H]3[C@H](CC[C@@]4(C)[C@H]3C[C@H]([N+]3(C)CCCCC3)[C@@H]4OC(C)=O)[C@@]2(C)C[C@@H]1[N+]1(C)CCCCC1 [Pancuronium (Pavulon)],0.103 ± 0.14,0.9949 ± 0.0088,0.0981 ± 0.056,0.22 ± 0.054
Cc1cccc(C(C)c2c[nH]cn2)c1C (configuration not stated) [Medetomidine HCl],0.122 ± 0.19,0.986 ± 0.024,0.11 ± 0.089,0.215 ± 0.087
Cc1cccc(C)c1NC(=O)CN1CCCC1=O [Nefiracetam (Translon)],0.0799 ± 0.083,0.987 ± 0.023,0.074 ± 0.032,0.267 ± 0.07
CN1c2ccccc2C(NCCCCCCC(=O)O)c2ccc(Cl)cc2S1(=O)=O (configuration not stated) [Tianeptine sodium],0.0724 ± 0.055,0.9986 ± 0.0024,0.106 ± 0.055,0.207 ± 0.087
CN(C)C(=O)Oc1cccc([N+](C)(C)C)c1 [Neostigmine bromide (Prostigmin)],0.0889 ± 0.11,0.993 ± 0.013,0.101 ± 0.058,0.245 ± 0.076
C[N+]1(C)CCOC(O)(c2ccc(-c3ccc(C4(O)C[N+](C)(C)CCO4)cc3)cc2)C1 (configuration not stated) [Hemicholinium Bromide],0.104 ± 0.1,0.9982 ± 0.0031,0.159 ± 0.17,0.289 ± 0.21
CNC1CC(N)C(O)C(OC2OC(CO)C(O)C3OC4(OC(C(N)CO)C(O)C(O)C4O)OC23)C1O (configuration not stated) [Hygromycin B],0.117 ± 0.17,0.976 ± 0.042,0.111 ± 0.087,0.209 ± 0.066

# Already shown: an excerpt of the list.
Compound,fraction [1],fraction [2],fraction of reporter-positive cells with nuclear (HeLa RPS2-YFP reporter),fraction of reporter-positive cells with nuclear (HeLa RPL29-GFP reporter)
NCC1(CC(=O)O)CCCCC1 [Gabapentin (Neurontin)],0.107 ± 0.14,0.993 ± 0.013,0.125 ± 0.074,0.229 ± 0.059
CNCC(=O)c1ccc(O)c(O)c1 [Adrenalone HCl],0.0818 ± 0.11,0.989 ± 0.019,0.124 ± 0.098,0.202 ± 0.054
O=C1CC[C@@]2(O)[C@H]3Cc4ccc(O)c5c4[C@@]2(CCN3CC2CC2)[C@H]1O5 [Naltrexone HCl],0.124 ± 0.18,0.991 ± 0.015,0.108 ± 0.099,0.229 ± 0.073
CC(C)NCC(O)c1ccccc1Cl (configuration not stated) [Clorprenaline HCL],0.0907 ± 0.13,0.991 ± 0.015,0.131 ± 0.096,0.219 ± 0.055
CC(=O)Nc1cc([As](=O)(O)O)ccc1O [Acetarsone],0.105 ± 0.11,0.9964 ± 0.0062,0.181 ± 0.16,0.294 ± 0.26
CN1C(=O)COc2c(C(=O)NC3CN4CCC3CC4)cc(Cl)cc21 (configuration not stated),0.0891 ± 0.11,0.992 ± 0.014,0.11 ± 0.068,0.211 ± 0.08
